Measurements published in the supplement of paper PMC10849652.
The list shows a part of the results.

Protein sequences, listed by entry. Tags and fused reporters are not part of them. Lines headed by an entry give the natural chain unless they say otherwise; changes in a name come on top.
UniProt Q96M86: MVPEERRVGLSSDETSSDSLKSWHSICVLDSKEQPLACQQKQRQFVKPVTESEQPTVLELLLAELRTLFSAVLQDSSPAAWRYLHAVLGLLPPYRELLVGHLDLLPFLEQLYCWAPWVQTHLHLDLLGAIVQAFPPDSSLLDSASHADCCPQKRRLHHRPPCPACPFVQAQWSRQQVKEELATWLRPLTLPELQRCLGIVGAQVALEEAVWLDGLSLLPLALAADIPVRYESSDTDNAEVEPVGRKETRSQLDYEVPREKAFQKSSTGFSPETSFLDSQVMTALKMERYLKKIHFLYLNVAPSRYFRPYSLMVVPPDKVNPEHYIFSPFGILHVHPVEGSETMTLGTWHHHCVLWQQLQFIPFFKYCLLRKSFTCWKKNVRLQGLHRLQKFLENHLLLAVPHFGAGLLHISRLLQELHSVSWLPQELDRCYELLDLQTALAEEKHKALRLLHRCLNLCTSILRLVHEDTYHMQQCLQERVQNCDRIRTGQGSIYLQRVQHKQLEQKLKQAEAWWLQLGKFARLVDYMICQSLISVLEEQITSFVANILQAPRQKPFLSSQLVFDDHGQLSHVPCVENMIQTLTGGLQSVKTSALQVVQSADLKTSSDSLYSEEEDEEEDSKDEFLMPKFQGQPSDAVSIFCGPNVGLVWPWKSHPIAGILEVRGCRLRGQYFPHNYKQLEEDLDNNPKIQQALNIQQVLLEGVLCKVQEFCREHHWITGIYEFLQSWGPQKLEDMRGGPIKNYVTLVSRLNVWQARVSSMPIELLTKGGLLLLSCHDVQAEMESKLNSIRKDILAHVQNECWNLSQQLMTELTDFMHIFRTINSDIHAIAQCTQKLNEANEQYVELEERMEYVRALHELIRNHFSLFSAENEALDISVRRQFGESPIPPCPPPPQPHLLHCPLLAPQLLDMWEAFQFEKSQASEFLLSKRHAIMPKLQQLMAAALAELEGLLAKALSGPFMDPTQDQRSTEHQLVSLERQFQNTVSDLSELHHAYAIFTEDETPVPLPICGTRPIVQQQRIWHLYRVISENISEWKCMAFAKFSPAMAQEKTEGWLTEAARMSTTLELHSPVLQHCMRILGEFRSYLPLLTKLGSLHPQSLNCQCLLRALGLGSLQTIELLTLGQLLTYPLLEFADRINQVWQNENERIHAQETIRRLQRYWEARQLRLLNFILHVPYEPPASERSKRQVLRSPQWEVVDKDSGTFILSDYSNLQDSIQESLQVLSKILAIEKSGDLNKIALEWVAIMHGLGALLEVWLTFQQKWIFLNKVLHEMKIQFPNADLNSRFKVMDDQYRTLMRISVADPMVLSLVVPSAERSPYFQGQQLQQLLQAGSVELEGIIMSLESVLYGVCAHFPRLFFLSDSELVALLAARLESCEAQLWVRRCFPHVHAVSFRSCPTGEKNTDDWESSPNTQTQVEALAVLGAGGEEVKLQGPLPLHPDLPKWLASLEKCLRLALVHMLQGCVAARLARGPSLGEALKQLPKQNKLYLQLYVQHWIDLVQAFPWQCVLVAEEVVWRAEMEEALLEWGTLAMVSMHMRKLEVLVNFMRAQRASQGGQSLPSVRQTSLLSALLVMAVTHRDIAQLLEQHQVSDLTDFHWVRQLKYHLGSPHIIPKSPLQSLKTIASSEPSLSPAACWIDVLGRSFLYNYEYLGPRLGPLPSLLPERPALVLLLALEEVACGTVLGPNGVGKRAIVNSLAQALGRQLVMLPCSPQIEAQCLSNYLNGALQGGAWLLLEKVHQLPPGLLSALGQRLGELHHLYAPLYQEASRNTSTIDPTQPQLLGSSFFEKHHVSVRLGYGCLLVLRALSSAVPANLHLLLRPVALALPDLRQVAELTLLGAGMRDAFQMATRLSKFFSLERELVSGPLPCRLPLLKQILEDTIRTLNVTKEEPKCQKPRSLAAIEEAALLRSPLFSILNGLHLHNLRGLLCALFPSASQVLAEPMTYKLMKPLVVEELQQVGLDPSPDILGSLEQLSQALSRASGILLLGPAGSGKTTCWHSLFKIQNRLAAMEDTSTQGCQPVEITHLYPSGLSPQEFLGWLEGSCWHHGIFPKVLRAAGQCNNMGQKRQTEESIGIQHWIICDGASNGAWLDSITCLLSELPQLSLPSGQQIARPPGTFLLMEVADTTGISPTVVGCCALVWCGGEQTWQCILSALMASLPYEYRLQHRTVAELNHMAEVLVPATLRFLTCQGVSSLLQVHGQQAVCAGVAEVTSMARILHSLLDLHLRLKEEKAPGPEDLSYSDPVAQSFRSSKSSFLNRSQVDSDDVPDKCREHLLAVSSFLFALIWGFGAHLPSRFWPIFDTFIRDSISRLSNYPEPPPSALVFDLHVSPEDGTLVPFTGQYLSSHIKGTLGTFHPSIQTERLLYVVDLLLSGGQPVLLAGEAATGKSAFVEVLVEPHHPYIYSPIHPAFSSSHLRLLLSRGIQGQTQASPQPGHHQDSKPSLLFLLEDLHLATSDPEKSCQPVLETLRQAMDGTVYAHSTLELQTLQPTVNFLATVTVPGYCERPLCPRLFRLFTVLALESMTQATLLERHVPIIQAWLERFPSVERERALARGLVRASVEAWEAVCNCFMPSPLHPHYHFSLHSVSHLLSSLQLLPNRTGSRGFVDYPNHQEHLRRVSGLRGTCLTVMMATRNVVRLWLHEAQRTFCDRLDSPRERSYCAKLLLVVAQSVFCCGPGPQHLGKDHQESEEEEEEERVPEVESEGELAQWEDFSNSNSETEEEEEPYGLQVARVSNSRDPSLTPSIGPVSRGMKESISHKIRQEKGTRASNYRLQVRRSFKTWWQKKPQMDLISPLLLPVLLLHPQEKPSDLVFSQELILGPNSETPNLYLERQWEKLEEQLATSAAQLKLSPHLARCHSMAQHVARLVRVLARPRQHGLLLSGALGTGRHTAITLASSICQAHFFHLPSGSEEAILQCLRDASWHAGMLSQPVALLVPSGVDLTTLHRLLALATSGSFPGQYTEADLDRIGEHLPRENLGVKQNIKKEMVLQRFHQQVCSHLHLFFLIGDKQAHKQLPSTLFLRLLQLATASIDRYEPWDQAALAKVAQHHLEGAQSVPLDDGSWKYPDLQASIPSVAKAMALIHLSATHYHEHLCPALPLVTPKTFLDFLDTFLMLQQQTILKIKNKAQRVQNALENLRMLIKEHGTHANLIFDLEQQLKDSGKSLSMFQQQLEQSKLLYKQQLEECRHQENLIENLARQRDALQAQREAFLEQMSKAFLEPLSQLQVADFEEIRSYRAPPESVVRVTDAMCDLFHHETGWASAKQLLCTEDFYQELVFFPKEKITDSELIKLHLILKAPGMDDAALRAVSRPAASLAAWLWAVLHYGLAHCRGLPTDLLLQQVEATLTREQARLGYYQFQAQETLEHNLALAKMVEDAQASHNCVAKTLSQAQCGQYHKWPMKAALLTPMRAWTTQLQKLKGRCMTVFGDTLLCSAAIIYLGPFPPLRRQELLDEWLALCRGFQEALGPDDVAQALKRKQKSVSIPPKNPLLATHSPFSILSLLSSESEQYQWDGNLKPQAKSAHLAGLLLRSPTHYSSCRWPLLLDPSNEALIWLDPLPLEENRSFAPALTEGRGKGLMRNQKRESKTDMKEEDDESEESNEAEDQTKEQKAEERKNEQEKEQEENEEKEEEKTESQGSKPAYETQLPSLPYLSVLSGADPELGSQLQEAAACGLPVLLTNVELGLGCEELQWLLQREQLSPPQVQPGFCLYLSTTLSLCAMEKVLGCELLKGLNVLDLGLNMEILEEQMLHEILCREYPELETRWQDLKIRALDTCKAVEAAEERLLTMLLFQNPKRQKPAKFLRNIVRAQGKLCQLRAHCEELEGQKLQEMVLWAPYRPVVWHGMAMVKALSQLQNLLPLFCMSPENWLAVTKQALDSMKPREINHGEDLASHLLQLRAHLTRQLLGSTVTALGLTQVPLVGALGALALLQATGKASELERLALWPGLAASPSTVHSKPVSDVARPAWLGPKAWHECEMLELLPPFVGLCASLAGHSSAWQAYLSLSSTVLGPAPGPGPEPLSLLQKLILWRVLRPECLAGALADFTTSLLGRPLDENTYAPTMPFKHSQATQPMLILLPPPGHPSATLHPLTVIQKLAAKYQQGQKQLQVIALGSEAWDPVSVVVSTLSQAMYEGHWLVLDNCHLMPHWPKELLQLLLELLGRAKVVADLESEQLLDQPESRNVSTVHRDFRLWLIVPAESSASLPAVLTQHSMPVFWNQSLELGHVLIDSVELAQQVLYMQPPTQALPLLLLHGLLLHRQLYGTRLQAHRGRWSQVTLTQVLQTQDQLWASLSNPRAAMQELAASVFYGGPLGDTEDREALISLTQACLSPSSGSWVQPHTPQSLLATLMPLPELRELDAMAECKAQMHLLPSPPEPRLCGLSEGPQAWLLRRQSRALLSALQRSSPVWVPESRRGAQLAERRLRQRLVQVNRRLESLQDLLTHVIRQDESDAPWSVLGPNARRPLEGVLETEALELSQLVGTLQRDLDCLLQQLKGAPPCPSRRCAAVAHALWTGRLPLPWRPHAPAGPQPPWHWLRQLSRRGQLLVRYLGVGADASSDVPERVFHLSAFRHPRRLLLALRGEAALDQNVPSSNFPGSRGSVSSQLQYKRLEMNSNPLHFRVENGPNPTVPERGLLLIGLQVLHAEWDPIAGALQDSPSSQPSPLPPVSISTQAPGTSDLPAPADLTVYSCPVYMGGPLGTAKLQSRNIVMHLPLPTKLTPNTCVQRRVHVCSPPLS
UniProt Q12959, whole entry, looked up: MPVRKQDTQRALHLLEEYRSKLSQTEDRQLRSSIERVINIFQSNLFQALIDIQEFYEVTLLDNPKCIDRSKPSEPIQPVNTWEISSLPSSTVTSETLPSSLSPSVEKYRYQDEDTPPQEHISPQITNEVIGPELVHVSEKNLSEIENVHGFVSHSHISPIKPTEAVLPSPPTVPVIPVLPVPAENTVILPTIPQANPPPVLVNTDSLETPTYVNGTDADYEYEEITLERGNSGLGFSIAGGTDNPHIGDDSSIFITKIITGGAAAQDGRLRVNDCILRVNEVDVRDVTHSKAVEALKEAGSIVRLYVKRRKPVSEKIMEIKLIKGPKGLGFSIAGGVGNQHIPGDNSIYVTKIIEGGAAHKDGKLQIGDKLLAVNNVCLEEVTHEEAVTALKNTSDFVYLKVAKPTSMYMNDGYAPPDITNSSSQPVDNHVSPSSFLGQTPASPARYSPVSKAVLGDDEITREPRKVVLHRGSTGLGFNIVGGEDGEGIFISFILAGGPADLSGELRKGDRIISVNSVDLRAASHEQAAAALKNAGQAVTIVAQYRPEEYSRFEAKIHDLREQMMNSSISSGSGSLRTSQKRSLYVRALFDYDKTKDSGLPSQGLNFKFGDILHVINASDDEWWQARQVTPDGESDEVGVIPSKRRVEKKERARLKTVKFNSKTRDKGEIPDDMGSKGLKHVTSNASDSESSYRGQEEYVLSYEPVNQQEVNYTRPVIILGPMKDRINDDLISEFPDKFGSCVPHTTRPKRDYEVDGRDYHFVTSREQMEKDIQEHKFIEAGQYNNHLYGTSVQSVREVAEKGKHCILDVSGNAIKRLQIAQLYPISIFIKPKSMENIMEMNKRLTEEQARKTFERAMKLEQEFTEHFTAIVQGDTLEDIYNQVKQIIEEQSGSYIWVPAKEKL
UniProt Q96DA6: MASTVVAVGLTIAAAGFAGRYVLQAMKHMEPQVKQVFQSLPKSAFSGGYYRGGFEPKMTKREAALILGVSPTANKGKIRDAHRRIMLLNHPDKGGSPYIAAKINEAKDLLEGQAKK
UniProt Q96EY1: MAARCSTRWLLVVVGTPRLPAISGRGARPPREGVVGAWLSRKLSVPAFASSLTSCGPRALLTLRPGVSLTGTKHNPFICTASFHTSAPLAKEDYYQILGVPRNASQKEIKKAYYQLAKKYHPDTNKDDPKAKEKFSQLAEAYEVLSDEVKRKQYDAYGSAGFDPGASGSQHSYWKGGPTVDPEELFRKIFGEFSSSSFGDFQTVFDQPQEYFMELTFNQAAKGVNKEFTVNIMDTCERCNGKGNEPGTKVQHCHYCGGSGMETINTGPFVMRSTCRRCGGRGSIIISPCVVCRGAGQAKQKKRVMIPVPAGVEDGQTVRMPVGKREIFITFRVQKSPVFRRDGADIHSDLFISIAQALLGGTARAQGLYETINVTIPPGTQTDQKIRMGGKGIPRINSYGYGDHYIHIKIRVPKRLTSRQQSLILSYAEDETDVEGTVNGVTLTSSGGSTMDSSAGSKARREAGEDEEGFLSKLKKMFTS

Tests used:
Assay in all cases: log2 fold change, soluble protein after heating vs DMSO (PISA); higher = thermal stabilisation; K562 lysate, 10 uM; active = over 0.2 and 3.5 SD of the protein, either way, in both replicates (recomputed)
[1] = compound: C1=CC=C(C=C1)[C@H](COC2=CC3=C(C=C2)NC(=O)N3)NC(=O)C4=CC=CN(C4=O)CC5=CC(=C(C=C5)F)F
Summary of the method: (§1)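 Log-two fold change in thermal stability relative to solvent controls is reported from duplicates. For each sample, crude K562 extract from dounce-homogenised pellets in PBS pH 7.4 with 1 mM MgCl2, at 1 mg/mL protein, was treated with 10 μM compound for 30 min. Aliquots heated for 3 min across 48°C-58°C were pooled, brought to 0.5% NP-40 at 4°C and cleared at 21,000xg for 90 min. The supernatant was quantified by TMTpro 16plex LC-MS/MS with channel sums equalised.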

[2] = compound: CC1=C(SC2=C1C(=N[C@H](C3=NN=C(N32)C)CC(=O)N)C4=CC=C(C=C4)Cl)C
Summary of the method: as §1

[3] = compound: CC1=C2C(=CC=C1)N=C(N(C2=O)C3=CC=CC=C3C)CN4C=NC5=C(N=CN=C54)N
Summary of the method: as §1

[4] = compound: Cc1sc2c(c1C)C(c1ccc(Cl)cc1)=N[C@@H](CC(=O)OC(C)(C)C)c1nnc(C)n1-2
Summary of the method: as §1

[5] = compound: c1ccc([C@@H]2C[C@H]2NC2CCNCC2)cc1
Summary of the method: as §1

Measured: log2 fold change

DNHD1 (UniProt Q96M86)
inactive: [1] -0.056 | [2] 0.109 | [3] 0.105

DMAP1 (UniProt Q9NPF5)
inactive: [1] 0.161 | [2] -0.04 | [3] 0.009 | [4] -0.049 | [5] 0.073

DLG1 isoform 3 (UniProt Q12959)
inactive: [1] -0.054 | [2] -0.101

DNAJC19 (UniProt Q96DA6)
inactive: [1] -0.033 | [2] 0.044 | [3] 0.04 | [4] -0.035 | [5] 0.016

DHX8 (UniProt Q14562)
inactive: [1] 0 | [2] 0.01 | [3] -0.012 | [4] -0.001 | [5] 0.007

2 entries picked at random from those above:
DNAJC19 (UniProt Q96DA6)
inactive: [1] -0.033 | [2] 0.044 | [3] 0.04 | [4] -0.035 | [5] 0.016

DNHD1 (UniProt Q96M86)
inactive: [1] -0.056 | [2] 0.109 | [3] 0.105

Continued.

DNAJA3 isoform 2 (UniProt Q96EY1)
inactive: [1] -0.077 | [2] -0.055 | [3] 0.074 | [4] -0.047

DNTTIP2 (UniProt Q5QJE6)
inactive: [1] 0.027 | [2] -0.081 | [3] 0.175 | [4] -0.024 | [5] 0.01

DLC1 (UniProt Q96QB1)
inactive: [1] 0.013 | [2] 0.146

DNAH5 (UniProt Q8TE73)
inactive: [1] -0.019 | [2] 0.018 | [3] 0.007 | [4] -0.087 | [5] -0.216

DNPH1 (UniProt H0Y8X4)
inactive: [1] 0.034 | [2] 0.01 | [3] -0.023 | [4] -0.019 | [5] -0.002
